Test results published in paper PMC5993538, “The plant-specific transcription factors CBP60g and SARD1 are targeted by a Verticillium secretory protein VdSCP41 to modulate immunity”.
Results are given in words; binding and its absence hold for the method and conditions named. In cells and extracts the contact can be indirect. For part of these data: Binding calls can cover weak binding; strength is not graded here. Sequences can lack the tags named with a protein.

What was measured:
[1] = molecular target: T1, CBP60g fused with a 3 × HA tag (Arabidopsis) (UniProt F4K2R6); assay: co-IP; Arabidopsis protoplasts co-transfected; anti-HA antibody with protein A agarose, 4°C, 4 hr; VdSCP41-FLAG detected by anti-FLAG immunoblot
T1 sequence: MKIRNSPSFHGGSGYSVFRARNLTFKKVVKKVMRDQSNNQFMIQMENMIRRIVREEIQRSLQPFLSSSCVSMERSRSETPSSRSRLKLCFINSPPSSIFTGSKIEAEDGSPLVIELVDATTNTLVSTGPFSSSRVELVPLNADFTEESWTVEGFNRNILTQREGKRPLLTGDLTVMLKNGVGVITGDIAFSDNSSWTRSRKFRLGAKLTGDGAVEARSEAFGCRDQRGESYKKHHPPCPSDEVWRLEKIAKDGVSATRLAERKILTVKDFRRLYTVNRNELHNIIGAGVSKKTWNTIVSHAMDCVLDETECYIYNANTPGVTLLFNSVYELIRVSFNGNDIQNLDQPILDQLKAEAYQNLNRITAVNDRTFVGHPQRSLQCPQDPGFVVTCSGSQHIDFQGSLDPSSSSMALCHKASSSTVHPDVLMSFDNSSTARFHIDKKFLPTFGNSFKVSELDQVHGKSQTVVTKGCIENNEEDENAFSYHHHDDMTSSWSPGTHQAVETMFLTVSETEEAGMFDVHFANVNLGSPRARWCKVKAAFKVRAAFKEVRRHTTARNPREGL

[2] = molecular target: T2, CBP60gC-HA (C-terminal portion of CBP60g, amino acids 211-end) (Arabidopsis) (UniProt F4K2R6); assay: as above
T2 sequence: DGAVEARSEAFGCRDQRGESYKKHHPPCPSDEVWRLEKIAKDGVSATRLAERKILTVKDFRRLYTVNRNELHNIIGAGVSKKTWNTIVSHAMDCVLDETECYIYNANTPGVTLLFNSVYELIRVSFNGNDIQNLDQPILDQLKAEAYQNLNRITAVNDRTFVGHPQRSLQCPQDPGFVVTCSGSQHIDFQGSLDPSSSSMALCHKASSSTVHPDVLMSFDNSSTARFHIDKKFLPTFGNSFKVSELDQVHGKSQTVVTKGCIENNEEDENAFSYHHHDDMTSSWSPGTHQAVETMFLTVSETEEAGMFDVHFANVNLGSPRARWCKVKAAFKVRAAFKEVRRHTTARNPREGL

[3] = molecular target: T3, CBP60gN-HA (N-terminal portion of CBP60g, amino acids 1–361) (Arabidopsis) (UniProt F4K2R6); assay: as above
T3 sequence: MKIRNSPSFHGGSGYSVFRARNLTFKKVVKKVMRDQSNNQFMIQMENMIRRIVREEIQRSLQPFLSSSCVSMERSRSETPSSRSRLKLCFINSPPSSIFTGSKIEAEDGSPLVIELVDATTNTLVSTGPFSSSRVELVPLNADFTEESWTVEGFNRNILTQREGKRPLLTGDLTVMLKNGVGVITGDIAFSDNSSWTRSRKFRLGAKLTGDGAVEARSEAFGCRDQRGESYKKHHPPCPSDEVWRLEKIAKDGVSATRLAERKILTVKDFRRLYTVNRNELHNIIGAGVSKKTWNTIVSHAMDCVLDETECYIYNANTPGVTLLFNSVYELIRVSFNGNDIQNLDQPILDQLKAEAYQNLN

[4] = molecular target: T4, CBP60g_(441-end), HA-tagged (Arabidopsis) (UniProt F4K2R6); assay: as above
T4 sequence: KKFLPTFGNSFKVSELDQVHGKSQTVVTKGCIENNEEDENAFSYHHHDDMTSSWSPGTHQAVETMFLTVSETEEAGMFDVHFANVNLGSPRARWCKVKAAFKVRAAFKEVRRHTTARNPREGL

SARD1-HA (Arabidopsis) = molecular target: T5, SARD1-HA (Arabidopsis) (UniProt Q9C9T2); assay: as above
T5 sequence: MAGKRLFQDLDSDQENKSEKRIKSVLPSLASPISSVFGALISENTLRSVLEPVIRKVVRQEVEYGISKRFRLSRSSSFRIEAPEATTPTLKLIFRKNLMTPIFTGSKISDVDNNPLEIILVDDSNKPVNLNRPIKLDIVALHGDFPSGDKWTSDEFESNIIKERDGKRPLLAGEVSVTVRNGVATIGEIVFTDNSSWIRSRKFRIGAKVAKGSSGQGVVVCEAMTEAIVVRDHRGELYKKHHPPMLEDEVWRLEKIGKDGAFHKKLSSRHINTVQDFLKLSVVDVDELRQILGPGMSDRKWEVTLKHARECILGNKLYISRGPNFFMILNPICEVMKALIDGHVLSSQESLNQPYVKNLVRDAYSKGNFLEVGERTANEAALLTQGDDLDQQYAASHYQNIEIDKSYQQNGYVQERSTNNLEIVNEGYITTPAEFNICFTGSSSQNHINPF

[5] = molecular target: T6, CLuc-CBP60g (Arabidopsis) (UniProt F4K2R6); assay: split reporter; luciferase complementation imaging in N. benthamiana leaves, Agrobacterium-infiltrated NLuc- and CLuc-tagged constructs, LUC activity 2 days post infiltration, CCD imaging and microplate luminometer
T6 sequence: T1 sequence

## FLAG-tagged VdSCP41 (Verticillium dahliae)
[1]
  binding: binds
[2]
  binding: binds
[3]
  binding: no binding
[4]
  binding: no binding
SARD1-HA (Arabidopsis)
  binding: binds

## NLuc-VdSCP41 (Verticillium dahliae)
[5]
  binding: binds
